Experimental data as given in paper PMC10968976, “Targeting CDK9 in Cancer: An Integrated Approach of Combining In Silico Screening with Experimental Validation for Novel Degraders” (Current Issues in Molecular Biology, 2024).

Tested on: NCI-H358 cells
Assay: Cell viability (cell-titer-glo), NCI-H358
Format: cell-based
Protocol: The cell lines used in this study were purchased from ATCC (https://www.atcc.org, accessed on 18 December 2023) and maintained under standard conditions at 37 °C with a 5% CO2 atmosphere. NCI-H-358 cells were cultivated in 1X RPMI 1640 medium, while MIA-PaCa2 cells were cultured using 1X DMEM. Both culture media were supplemented with 10% fetal bovine serum and 1X Penicillin/Streptomycin (Gibco). For culturing the Melma-3M cells, IMDM media fortified with 20% fetal bovine serum and 1X Penicillin/Streptomycin was used. […]
Briefly, for cell viability experiments, after splitting, cells from each respective cell line were plated onto 96-well plates (MSP, Cat # CT-229185) at a density of about 1 × 10^4 cells/mL and 200 µL per well using the appropriate cell culture media after about 24 h at 37 °C, the cell media in each 96-well plate were replaced with media containing the various test compounds at varying concentrations. […] Each plate was gently mixed for ca. 10 min at room temperature and then transferred to a plate reader (Bio-Tek, Synergy HTX, Winooski, VT, USA, multimode reader) for chemiluminescence measurement as a proportional indicator of cell viability.
TB003 and TB008 have also been evaluated for cell growth inhibition and killing using two cell lines, NCI-H358, a non-small cell lung carcinoma-derived cell line, and MIA-PaCa-2, a pancreatic carcinoma-derived cell line. […]

O=C1[O][Pt]2([NH][C@@H]3CCCC[C@H]3[NH]2)[O]C1=O [Oxaliplatin, oxaliplatin]
concentrations with no statistical significance vs control: < 0.11 µM
